Among the data in article PMC12236914 are binding values, retold here.

Amino acid sequences for entries named in this document (tags omitted). A change or cut given only in a name is not applied to a line headed by its entry.
UniProt P39748: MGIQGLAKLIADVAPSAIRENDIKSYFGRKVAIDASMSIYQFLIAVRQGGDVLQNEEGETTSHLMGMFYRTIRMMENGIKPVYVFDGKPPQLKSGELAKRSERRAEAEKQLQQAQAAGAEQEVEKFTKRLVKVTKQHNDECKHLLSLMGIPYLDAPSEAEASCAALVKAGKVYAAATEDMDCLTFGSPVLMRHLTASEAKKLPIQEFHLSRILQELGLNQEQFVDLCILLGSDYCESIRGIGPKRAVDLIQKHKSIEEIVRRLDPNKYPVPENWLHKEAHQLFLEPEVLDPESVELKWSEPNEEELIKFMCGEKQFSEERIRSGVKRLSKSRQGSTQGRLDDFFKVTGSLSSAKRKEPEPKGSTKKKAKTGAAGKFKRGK
UniProt O15360: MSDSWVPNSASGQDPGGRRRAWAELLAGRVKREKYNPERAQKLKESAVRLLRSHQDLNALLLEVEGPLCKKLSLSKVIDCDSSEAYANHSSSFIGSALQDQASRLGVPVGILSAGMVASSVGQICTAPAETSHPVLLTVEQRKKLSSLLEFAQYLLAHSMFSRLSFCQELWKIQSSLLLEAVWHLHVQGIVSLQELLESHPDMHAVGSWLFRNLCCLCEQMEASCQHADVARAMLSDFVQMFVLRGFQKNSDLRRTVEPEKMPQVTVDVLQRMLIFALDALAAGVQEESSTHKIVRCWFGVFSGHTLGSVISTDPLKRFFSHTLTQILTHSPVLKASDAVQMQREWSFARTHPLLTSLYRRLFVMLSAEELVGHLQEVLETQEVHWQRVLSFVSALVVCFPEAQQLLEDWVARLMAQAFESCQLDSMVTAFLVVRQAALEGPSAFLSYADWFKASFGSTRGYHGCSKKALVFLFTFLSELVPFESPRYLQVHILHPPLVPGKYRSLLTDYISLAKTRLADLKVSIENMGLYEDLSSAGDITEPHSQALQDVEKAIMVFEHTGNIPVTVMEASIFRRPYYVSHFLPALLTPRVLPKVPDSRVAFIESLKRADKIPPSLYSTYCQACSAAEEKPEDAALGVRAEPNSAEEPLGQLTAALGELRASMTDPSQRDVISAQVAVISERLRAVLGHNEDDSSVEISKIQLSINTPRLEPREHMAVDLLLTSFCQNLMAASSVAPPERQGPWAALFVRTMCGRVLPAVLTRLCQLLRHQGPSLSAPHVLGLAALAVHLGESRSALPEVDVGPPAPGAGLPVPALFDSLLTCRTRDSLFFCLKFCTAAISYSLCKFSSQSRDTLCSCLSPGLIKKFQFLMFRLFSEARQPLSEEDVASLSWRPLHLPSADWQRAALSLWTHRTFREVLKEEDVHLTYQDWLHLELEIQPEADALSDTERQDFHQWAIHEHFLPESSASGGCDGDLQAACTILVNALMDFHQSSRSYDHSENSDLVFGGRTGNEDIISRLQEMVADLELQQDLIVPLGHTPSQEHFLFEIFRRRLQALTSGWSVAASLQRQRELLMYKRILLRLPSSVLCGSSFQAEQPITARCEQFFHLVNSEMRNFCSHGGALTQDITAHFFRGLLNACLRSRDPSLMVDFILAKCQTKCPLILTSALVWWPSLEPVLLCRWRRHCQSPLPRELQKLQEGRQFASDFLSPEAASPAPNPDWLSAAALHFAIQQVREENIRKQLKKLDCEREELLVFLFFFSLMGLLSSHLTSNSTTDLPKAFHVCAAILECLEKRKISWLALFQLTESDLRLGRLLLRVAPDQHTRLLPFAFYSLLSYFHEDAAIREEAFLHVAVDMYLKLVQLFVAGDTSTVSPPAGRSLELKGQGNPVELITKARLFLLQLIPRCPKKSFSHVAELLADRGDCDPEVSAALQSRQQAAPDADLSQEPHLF

This test addresses Flag-tagged FEN1 (UniProt P39748). Put plainly: co-IP; anti-Flag antibody to pull down Flag-tagged FEN1 from whole cell lysate, HA-tagged FANCA constructs (doxycycline-inducible), Western blot; NETN lysis buffer.

Results are given in words; binding and its absence hold for the method and conditions named. Binding seen in cells or lysates may run through a third protein.

“FANCA ΔD4 mutant (from UniProt O15360) (domain or fragment)”: the binding entry is reported as “no binding”.

Regarding “FANCA ΔD5 mutant (from UniProt O15360) (domain or fragment)”, the binding entry was “no binding”.
